Some entries share one result that the patent states for a list of compounds.
Test: Solubility to water of the poorly water-soluble polyphenol compounds
Format: physicochemical

For `COc1cc(/C=C/C(=O)CC(=O)/C=C/c2ccc(O)c(OC)c2)ccc1O` [curcumin], the solubility to water was ≤ 0.1 % by mass.

In the case of `C[C@@H]1O[C@@H](OC[C@H]2O[C@@H](Oc3c(-c4ccc(O)c(O)c4)oc4cc(O)cc(O)c4c3=O)[C@H](O)[C@@H](O)[C@@H]2O)[C@H](O)[C@H](O)[C@H]1O` [rutin], the solubility to water is reported as ≤ 0.1 % by mass.

For `Oc1ccc(C=Cc2cc(O)cc(O)c2)cc1` [resveratrol], the solubility to water was ≤ 0.1 % by mass.

— patent publication US20120003288A1, “DISPERSION COMPOSITION AND METHOD FOR MANUFACTURING DISPERSION COMPOSITION” (priority 2009, published 2012)
